The other results are listed elsewhere or left out.

Sequences of proteins named here, by UniProt entry; tags and fusion partners are left off. A change or cut given only in a name is not applied to a line headed by its entry.
UniProt O43805: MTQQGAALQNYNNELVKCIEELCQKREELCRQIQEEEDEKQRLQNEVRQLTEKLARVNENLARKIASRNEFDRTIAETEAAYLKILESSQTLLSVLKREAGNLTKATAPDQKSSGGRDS
UniProt Q8N5C6: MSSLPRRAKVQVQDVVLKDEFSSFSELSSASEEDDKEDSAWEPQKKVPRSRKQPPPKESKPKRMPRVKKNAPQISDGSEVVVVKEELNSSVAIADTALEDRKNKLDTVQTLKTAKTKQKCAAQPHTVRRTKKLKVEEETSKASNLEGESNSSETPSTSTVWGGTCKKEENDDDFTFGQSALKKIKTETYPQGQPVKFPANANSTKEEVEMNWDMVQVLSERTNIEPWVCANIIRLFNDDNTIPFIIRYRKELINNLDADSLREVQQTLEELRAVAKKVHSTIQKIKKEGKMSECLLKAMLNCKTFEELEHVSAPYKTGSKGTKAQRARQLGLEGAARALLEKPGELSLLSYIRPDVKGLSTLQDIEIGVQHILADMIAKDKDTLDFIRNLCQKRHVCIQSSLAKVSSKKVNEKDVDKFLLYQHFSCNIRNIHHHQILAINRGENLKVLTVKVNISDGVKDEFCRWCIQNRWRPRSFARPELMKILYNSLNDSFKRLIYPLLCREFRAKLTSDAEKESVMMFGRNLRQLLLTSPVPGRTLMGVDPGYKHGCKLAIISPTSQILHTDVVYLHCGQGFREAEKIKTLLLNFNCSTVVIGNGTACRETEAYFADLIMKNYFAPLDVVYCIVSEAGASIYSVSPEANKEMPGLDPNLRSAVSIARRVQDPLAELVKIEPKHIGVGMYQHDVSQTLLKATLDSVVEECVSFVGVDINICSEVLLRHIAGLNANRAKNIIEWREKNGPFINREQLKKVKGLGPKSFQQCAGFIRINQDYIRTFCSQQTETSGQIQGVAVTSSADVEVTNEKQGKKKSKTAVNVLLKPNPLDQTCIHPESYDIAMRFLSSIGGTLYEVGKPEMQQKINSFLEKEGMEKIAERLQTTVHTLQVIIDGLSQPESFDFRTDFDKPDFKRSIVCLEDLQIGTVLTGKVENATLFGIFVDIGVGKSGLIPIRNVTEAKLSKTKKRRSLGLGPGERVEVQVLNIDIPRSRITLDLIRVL
UniProt P52788: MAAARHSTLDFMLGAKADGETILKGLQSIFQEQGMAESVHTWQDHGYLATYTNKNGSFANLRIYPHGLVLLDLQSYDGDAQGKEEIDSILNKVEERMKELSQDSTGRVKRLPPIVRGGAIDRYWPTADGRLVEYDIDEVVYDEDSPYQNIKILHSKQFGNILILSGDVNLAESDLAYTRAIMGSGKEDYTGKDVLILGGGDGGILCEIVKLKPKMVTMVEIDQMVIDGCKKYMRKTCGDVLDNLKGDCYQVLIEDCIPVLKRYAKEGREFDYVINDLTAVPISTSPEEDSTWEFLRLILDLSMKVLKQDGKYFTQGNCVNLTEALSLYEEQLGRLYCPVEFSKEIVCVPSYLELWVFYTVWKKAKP
UniProt Q9HB58: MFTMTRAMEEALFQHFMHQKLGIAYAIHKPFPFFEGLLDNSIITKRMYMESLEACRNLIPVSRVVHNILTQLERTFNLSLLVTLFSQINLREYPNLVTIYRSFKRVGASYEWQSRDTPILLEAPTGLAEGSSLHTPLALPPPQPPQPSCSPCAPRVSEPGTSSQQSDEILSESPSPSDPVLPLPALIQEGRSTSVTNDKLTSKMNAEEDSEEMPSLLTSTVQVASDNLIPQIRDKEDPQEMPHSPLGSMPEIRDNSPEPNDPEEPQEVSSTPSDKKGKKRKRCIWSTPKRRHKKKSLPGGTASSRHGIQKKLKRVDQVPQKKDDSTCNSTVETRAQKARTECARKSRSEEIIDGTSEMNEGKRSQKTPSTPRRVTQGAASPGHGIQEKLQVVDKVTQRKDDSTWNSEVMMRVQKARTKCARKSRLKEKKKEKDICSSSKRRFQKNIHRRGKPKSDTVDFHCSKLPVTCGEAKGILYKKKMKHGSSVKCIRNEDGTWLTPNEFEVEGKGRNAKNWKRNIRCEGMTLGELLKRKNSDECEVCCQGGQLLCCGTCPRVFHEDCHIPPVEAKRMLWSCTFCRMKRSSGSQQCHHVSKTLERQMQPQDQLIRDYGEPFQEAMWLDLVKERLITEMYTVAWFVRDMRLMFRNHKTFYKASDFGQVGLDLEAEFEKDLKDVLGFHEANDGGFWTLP
UniProt Q92536: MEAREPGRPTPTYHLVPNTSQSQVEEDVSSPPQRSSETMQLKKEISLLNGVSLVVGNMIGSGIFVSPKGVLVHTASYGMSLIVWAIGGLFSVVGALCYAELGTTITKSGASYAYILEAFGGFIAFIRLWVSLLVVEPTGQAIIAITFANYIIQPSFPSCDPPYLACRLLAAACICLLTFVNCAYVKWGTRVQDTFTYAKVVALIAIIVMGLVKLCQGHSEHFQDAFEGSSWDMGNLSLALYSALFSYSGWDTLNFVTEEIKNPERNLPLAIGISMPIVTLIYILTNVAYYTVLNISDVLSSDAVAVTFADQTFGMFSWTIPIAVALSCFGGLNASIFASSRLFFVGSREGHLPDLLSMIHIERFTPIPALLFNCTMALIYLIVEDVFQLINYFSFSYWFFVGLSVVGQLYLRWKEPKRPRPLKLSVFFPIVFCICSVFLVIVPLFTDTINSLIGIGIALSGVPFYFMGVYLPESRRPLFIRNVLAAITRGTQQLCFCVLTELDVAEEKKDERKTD
UniProt Q14683: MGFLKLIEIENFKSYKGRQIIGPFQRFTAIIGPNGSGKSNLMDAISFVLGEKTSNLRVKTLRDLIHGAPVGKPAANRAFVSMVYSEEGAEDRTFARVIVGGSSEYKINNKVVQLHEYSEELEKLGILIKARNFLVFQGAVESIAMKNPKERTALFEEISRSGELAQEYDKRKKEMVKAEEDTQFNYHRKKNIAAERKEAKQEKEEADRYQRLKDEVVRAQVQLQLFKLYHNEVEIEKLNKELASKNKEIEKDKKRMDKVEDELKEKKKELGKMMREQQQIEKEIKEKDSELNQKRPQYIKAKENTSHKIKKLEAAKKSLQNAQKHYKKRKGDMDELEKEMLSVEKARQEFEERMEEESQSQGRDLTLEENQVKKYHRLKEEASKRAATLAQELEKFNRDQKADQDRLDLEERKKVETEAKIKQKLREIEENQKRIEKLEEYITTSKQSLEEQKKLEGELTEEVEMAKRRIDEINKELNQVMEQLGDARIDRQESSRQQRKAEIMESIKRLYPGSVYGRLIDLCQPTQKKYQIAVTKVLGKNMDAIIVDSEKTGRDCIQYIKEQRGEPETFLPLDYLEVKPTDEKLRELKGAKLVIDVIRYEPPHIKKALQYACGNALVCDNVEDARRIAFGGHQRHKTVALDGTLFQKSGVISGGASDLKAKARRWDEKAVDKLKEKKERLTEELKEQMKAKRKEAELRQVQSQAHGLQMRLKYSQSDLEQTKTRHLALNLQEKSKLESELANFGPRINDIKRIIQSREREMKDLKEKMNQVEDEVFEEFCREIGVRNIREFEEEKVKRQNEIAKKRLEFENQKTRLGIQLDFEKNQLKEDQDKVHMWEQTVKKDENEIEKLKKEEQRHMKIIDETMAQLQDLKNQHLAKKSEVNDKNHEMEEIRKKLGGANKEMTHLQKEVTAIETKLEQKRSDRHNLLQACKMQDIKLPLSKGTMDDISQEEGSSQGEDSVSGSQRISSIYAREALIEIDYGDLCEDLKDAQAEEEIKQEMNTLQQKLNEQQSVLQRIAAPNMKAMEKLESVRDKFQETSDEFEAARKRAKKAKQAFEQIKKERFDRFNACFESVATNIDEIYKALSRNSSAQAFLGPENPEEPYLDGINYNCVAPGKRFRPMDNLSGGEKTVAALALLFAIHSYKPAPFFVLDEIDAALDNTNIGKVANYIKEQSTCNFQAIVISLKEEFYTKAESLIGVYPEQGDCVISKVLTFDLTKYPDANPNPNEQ
UniProt O95793: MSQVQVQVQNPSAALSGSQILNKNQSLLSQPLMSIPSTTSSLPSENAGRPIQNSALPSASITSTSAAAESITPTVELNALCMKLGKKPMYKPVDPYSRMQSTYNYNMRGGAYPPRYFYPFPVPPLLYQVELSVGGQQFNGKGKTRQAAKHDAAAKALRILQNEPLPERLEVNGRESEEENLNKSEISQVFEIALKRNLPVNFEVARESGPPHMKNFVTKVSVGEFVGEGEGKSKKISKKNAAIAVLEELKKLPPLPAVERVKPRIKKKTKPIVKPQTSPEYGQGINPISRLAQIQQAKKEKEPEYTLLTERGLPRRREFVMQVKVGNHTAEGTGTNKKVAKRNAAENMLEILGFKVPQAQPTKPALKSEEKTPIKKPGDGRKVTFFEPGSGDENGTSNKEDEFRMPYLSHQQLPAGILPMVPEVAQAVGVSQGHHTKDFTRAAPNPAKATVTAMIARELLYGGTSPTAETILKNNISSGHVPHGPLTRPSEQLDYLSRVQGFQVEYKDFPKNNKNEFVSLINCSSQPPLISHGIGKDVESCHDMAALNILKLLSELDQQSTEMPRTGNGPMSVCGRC
UniProt O43278: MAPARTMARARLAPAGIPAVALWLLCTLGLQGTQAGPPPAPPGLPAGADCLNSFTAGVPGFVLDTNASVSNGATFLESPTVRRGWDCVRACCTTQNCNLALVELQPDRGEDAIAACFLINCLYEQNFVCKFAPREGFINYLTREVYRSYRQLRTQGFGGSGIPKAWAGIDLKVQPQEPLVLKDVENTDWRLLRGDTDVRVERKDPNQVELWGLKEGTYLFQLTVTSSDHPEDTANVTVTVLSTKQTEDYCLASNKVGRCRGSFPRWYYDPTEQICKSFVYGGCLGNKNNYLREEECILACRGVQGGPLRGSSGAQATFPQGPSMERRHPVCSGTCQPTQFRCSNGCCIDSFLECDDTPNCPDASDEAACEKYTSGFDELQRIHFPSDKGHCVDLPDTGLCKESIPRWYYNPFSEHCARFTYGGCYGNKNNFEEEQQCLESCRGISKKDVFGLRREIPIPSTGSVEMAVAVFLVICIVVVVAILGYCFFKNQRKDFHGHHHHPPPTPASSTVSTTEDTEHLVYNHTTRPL
UniProt Q9ULZ2: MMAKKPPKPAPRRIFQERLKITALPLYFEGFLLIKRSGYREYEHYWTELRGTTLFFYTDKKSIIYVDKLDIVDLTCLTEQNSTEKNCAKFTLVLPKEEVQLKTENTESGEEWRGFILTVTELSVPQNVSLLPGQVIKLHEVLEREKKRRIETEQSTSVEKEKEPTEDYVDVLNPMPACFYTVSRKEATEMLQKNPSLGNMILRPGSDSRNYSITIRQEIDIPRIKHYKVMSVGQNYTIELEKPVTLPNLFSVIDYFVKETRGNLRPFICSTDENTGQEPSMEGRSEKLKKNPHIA
UniProt P19623: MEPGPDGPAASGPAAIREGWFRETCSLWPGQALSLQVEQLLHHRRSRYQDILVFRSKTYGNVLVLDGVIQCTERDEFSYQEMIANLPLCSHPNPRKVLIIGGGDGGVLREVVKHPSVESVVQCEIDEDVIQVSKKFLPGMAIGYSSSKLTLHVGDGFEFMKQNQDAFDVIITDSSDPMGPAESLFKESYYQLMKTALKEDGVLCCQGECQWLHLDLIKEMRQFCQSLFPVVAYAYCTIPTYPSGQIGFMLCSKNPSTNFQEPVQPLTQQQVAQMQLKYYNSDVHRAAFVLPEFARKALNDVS
UniProt P23497: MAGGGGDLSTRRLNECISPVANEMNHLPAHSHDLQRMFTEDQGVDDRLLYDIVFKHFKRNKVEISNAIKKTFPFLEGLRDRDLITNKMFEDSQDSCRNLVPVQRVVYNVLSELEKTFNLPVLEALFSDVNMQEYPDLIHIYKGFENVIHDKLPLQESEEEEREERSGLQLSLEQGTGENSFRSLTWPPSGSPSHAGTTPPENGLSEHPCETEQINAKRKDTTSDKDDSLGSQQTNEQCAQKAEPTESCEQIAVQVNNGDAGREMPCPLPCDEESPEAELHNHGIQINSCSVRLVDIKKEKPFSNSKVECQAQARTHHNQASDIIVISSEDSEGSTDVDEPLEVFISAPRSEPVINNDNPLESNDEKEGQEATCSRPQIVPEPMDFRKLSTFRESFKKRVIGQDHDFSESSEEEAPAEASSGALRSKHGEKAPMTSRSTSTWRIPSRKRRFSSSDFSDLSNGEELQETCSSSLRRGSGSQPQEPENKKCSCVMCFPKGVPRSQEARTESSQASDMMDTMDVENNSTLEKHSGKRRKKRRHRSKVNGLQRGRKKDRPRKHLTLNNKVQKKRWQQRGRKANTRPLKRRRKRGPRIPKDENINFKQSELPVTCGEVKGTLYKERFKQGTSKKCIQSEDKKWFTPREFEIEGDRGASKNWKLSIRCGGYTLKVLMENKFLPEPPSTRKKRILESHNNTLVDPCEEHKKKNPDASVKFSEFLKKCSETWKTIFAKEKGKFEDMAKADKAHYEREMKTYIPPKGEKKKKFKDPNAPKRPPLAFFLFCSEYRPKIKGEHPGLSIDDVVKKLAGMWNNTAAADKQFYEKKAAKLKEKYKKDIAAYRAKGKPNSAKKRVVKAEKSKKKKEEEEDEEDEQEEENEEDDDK

Compound in the test: COc1ccc(Cn2ccc3ccc(C(=O)NO)cc32)cc1
As to the kind of experiment: dose-dependent thermal stabilisation call (2D-TPP, DLPTP, 10% FDR) (binary (1 = stabilised)); higher = stabilised by the compound. The following applies: system: HL-60 intact cells; concentration range 0.04-10 µM.
STAT3 (UniProt P40763): the “dose-dependent thermal stabilisation call” value is inactive: 0. As for SPIN1 (UniProt Q9Y657), the “dose-dependent thermal stabilisation call” value is inactive: 0. Take SPIRE1 (UniProt Q08AE8): the “dose-dependent thermal stabilisation call” value is inactive: 0. As for SSNA1 (UniProt O43805), the “dose-dependent thermal stabilisation call” value was inactive: 0. As to STC2 (UniProt O76061), the “dose-dependent thermal stabilisation call” value was inactive: 0. The value for SMC6 (UniProt Q96SB8) was inactive: 0. Regarding ST14 (UniProt Q9Y5Y6), the “dose-dependent thermal stabilisation call” value was inactive: 0.

SNRPC (UniProt P09234): the “dose-dependent thermal stabilisation call” value is inactive: 0. The value for STK39 (UniProt Q9UEW8) was inactive: 0; that for STAM2 (UniProt O75886) was inactive: 0; that for SRBD1 (UniProt Q8N5C6) was inactive: 0.

With STK3 (UniProt Q13188), the “dose-dependent thermal stabilisation call” value was inactive: 0. Regarding SPTAN1 (UniProt Q13813), the “dose-dependent thermal stabilisation call” value is inactive: 0. For the target SMARCA2 (UniProt P51531), the “dose-dependent thermal stabilisation call” value was inactive: 0. As for SP2 (UniProt Q02086), the “dose-dependent thermal stabilisation call” value was inactive: 0. SURF4 (UniProt O15260): the “dose-dependent thermal stabilisation call” value was inactive: 0. The value for SMS (UniProt P52788) was inactive: 0. The value for SLC9A3R1 (UniProt O14745) was inactive: 0; that for SP1 (UniProt P08047) was inactive: 0; that for SP110 (UniProt Q9HB58) was inactive: 0. For the target SLC7A6 (UniProt Q92536), the “dose-dependent thermal stabilisation call” value was inactive: 0. Turning to SPG7 (UniProt Q9UQ90), the “dose-dependent thermal stabilisation call” value was inactive: 0. On to SRP72 (UniProt O76094), for which the “dose-dependent thermal stabilisation call” value is inactive: 0.

For SLC7A6OS (UniProt Q96CW6), the “dose-dependent thermal stabilisation call” value was inactive: 0. Turning to SMEK2 (UniProt Q5MIZ7), the “dose-dependent thermal stabilisation call” value was inactive: 0. On to SNTB1 (UniProt Q13884), for which the “dose-dependent thermal stabilisation call” value was inactive: 0.

Turning to SMC1A (UniProt Q14683), the “dose-dependent thermal stabilisation call” value was inactive: 0.

For the target STAU1 (UniProt O95793), the “dose-dependent thermal stabilisation call” value was inactive: 0. In the case of SPINT1 (UniProt O43278), the “dose-dependent thermal stabilisation call” value is inactive: 0. In the case of STAP1 (UniProt Q9ULZ2), the “dose-dependent thermal stabilisation call” value was inactive: 0.

As for TAF15 (UniProt Q92804), the “dose-dependent thermal stabilisation call” value is inactive: 0. Regarding SRM (UniProt P19623), the “dose-dependent thermal stabilisation call” value was inactive: 0. On to SOLH (UniProt O75808), for which the “dose-dependent thermal stabilisation call” value was inactive: 0.

Take SMC3 (UniProt Q9UQE7): the “dose-dependent thermal stabilisation call” value is inactive: 0. As to TAF1C (UniProt Q15572), the “dose-dependent thermal stabilisation call” value was inactive: 0. SP100 (UniProt P23497): the “dose-dependent thermal stabilisation call” value is inactive: 0.

As to SPTBN2 (UniProt O15020), the “dose-dependent thermal stabilisation call” value was inactive: 0.

Source of the values: the supplement of paper PMC7666118.
